For 42 sequences, binding signal results are on record in PMC7819943, “Rice protein-binding microarrays: a tool to detect cis-acting elements near promoter regions in rice”.

Sequences of proteins named here, by UniProt entry; tags and fusion partners are left off.
UniProt Q0JBA9, entry or part of it: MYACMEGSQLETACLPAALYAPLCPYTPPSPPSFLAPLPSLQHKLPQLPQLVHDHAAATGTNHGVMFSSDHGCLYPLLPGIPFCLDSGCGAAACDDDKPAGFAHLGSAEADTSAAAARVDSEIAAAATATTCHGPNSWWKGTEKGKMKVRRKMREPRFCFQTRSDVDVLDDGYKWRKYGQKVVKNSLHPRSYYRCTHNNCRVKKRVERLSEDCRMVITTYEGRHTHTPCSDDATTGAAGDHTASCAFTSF

The other results are listed elsewhere or left out.

This assay addresses OsWRKY34 (Oryza sativa, UniProt Q0JBA9 1-250). As to the kind of experiment: protein-binding microarray (RPBM); PBS, 2% BSA, 51.3 ng/ul salmon testes DNA, 50 uM zinc acetate, 200 nM TF, 25 C, 1 h; high values mean tight binding. The settings on record: protein: recombinant; tags: N-terminal polyhistidine and DsRed monomer fusion (pET32a); label: CyDye5-dUTP incorporated in the synthesized complementary strand; 3' TTTTT single-stranded linker to array surface; dsDNA, one strand shown. The essentials:
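Transcription factors were made in E. coli BL21-CodonPlus as N-terminal fusions to a polyhistidine tag and DsRed, then purified on Ni–NTA. After primer extension with Cy5-dUTP and blocking with 2% BSA, a custom Agilent array was exposed for 1 h at 25 °C to 200 nM protein in PBS, 2% BSA, salmon testes DNA and 50 µM zinc acetate. Washed arrays were scanned on an Axon 4000B, and the binding signal is per-feature fluorescence intensity in arbitrary units.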
For the sequence “CCTATTGTTGTTGCTGCTTGATGCTTGCTGTTACCCCTGACGGAGTCACCTAGTGCAG”, the binding signal was 8580 fluorescence intensity (a.u.).
Take “AGTCATTCTAACATTTCCCACATTCATATTGATGTTAATGCGGAGTCACCTAGTGCAG”: the binding signal is 8760 fluorescence intensity (a.u.).
Then “ACCTATTATTGCATGATTAATTAAGTATTTACTATTTTTTCGGAGTCACCTAGTGCAG”, with 10800 fluorescence intensity (a.u.); and “ATCACAAGAGATTGTCACATGGCCCATGCACGCTATCGCACGGAGTCACCTAGTGCAG”, with 8880 fluorescence intensity (a.u.); and “ATCCACCACGCAACCTTGCCGCCGCACTTGCACATGATGGCGGAGTCACCTAGTGCAG”, with 10600 fluorescence intensity (a.u.).
The value for “ATCCACCTTCTCATCTAATCGCCATCCCATCCCACCAATTCGGAGTCACCTAGTGCAG” was 11000 fluorescence intensity (a.u.); that for “AACGTAATCTTCTCATCCCACCGACGGATCGATCGATCCACGGAGTCACCTAGTGCAG” was 8520 fluorescence intensity (a.u.).
Regarding “CCCGTCCGAGTTTCAACCCTTTGACTCGAGCGCACGCTCCCGGAGTCACCTAGTGCAG”, the binding signal is 11700 fluorescence intensity (a.u.).
The value for “CAATATGAGATGGTGGGCACTTTTTTTTGTCACAAAATAACGGAGTCACCTAGTGCAG” was 8060 fluorescence intensity (a.u.); that for “TCCTTGTTGGTTCAATATAGAACTCTATTTGTCCTTTCTTCGGAGTCACCTAGTGCAG” was 9740 fluorescence intensity (a.u.); that for “ACTGGCTTGCTCTACTCTATTATTCCCTTTGCATTGCATTCGGAGTCACCTAGTGCAG” was 8240 fluorescence intensity (a.u.).
Regarding “ATGTAATGACATATTAACATCGTGAGAAAAACTTACCTAGCGGAGTCACCTAGTGCAG”, the binding signal is 12400 fluorescence intensity (a.u.).
The value for “AAGAATTTTGCTTTGGTTCAACCTTTTTTCTCTTCTTTCTCGGAGTCACCTAGTGCAG” was 11300 fluorescence intensity (a.u.); that for “CCCTCGCTACGGCTCATCTTGTTTTGTTTTGGTTGACCTTCGGAGTCACCTAGTGCAG” was 11200 fluorescence intensity (a.u.); that for “CCTGCCGACCACCGCGCATGCGTCCCTGCCGTCCTGGTATCGGAGTCACCTAGTGCAG” was 8530 fluorescence intensity (a.u.).
Then “AATGAGAGCTTAGGGGTTAGGGCCTGTTTTTTTTTTTCATCGGAGTCACCTAGTGCAG”, with 10100 fluorescence intensity (a.u.).
Then “AATCGGCGCCAATTCAGCTTGTTTTGTGGAACTGTGTGTTCGGAGTCACCTAGTGCAG”, with 10300 fluorescence intensity (a.u.); and “CCGCGTGTGCCTCCCGCCGCCGCCGCTGTGGTCTCCTCCACGGAGTCACCTAGTGCAG”, with 9180 fluorescence intensity (a.u.); and “TTCTTCGTGGAGGAGGGGATATGGGTTGGCACCGGTGGCGCGGAGTCACCTAGTGCAG”, with 13100 fluorescence intensity (a.u.).
“AGTTTTTGTTGGTTCTATGTGTCATCGTCGTCGATATCCACGGAGTCACCTAGTGCAG”: the binding signal was 12400 fluorescence intensity (a.u.).
The value for “CACGTTTAGTTCCATCGTGTGTTCTGTCCTCTGGCAAGCGCGGAGTCACCTAGTGCAG” was 8170 fluorescence intensity (a.u.); that for “ACTCCTCGTTGATCTGGATCTTGGAGAGATCCTCCTCGCCCGGAGTCACCTAGTGCAG” was 8050 fluorescence intensity (a.u.).
For “TGTGGTGGATGCTGCTCTAACTGCCTGTTCCCATGGAAGACGGAGTCACCTAGTGCAG”, the binding signal was 8720 fluorescence intensity (a.u.).
The value for “ATCCTAATTTTTAGCCTAATTATTCTTCTGGCCGCTAATACGGAGTCACCTAGTGCAG” was 9900 fluorescence intensity (a.u.).
Turning to “CGGCCTATAAGTACTCCATCCCGCCGGCCGGCCGGTGACTCGGAGTCACCTAGTGCAG”, the binding signal was 9830 fluorescence intensity (a.u.).
Consider “ATGTGTGAGGATGGTGGTTTGAAAGAGTTCATTACCTGGACGGAGTCACCTAGTGCAG”, for which the binding signal is 9180 fluorescence intensity (a.u.).
The value for “TGTCGTTCCACCGCTCCCGCGGCAGCGCGTCTCCTGCAGGCGGAGTCACCTAGTGCAG” was 9840 fluorescence intensity (a.u.); that for “TTTTGTTAGGTCTTCTCCTCCTCCGCCGTCTCGTGCGCCGCGGAGTCACCTAGTGCAG” was 8870 fluorescence intensity (a.u.); that for “CCGTTCGATGACCATACTCTATTTCACAACGCTGTTGACACGGAGTCACCTAGTGCAG” was 11100 fluorescence intensity (a.u.).
The value for “GACAAATCACCATCTACTTCATATATGCAGGCAATTTTTACGGAGTCACCTAGTGCAG” was 11100 fluorescence intensity (a.u.).
Then “GCCCGGCTACCACCACGCCAACGCGCTCATTTCGTTCATTCGGAGTCACCTAGTGCAG”, with 15400 fluorescence intensity (a.u.).
In the case of “ACATCGCTCACTGTTTTCTTTCCGAGGTACCTCAACATTACGGAGTCACCTAGTGCAG”, the binding signal is 11100 fluorescence intensity (a.u.).
The value for “GCGTTATTCGCAGTCATTTGTTTTCTAATTATGTATGTCACGGAGTCACCTAGTGCAG” was 8670 fluorescence intensity (a.u.); that for “GTCAATTGTTCCTCTTGTTATGATTAGATCAGCCATTTTACGGAGTCACCTAGTGCAG” was 9840 fluorescence intensity (a.u.); that for “ATAGCAGCCTCTCTCCATCTCTCTCACACACTCAACTCAACGGAGTCACCTAGTGCAG” was 8380 fluorescence intensity (a.u.).
The value for “CCATTTGGACATCTCTGAATTCGTCTGTTCATCTTTACCACGGAGTCACCTAGTGCAG” was 10200 fluorescence intensity (a.u.); that for “ACCAGTGTCGCCTCCTACTGATGTGTTGAGAGTTTCTGAACGGAGTCACCTAGTGCAG” was 8400 fluorescence intensity (a.u.).
Then “TCATGTGCCTCAACTTTTTTTACCACCCAATCCGCGTGCCCGGAGTCACCTAGTGCAG”, with 8120 fluorescence intensity (a.u.); and “TTCACGTCTCTTTCACATGTGCTTACAGTCGACTCGACTTCGGAGTCACCTAGTGCAG”, with 8710 fluorescence intensity (a.u.); and “GGTTTTGCGGTTCGATGATGATTTCGTATCTCGCTGACAACGGAGTCACCTAGTGCAG”, with 8640 fluorescence intensity (a.u.).
As to “AATCGATCTCCAATGCTCTGATACCACTTGTTATGAAAATCGGAGTCACCTAGTGCAG”, the binding signal was 8120 fluorescence intensity (a.u.).
The value for “ACTTCACTTCGCTCACCACATCACCACCTCACTCCACTAACGGAGTCACCTAGTGCAG” was 9760 fluorescence intensity (a.u.).
